In PubChem BioAssay:
The inconclusive results got no clear call from the source; some entries with a clear call stand among them for comparison. For some assays here: Potencies of inconclusive entries are doubtful fits and often do not repeat. Calls of active or inactive are those of the source. Unless noted, no cut-off is given here; in the data, nearly all actives have AC50 up to about 26 µM.

Assays:
[1] = growth inhibition of DIPG glioma cells, dose response, cell-based, SU-DIPG-XVII, MIPE5.0, CellTiter-Glo, qHTS (AID 1347060); details: SU-DIPG-XVII viability, CellTiter-Glo ATP luminescence;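 for AC50: cells exposed to compound for 48 hours before viability readout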
[2] = growth inhibition of DIPG glioma cells, dose response, cell-based, JHH-DIPG-1, MIPE4.0, CellTiter-Glo, qHTS (AID 1347062; cut-off not given, nearly all actives have AC50 up to about 27 µM;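 for AC50: cells exposed to compound for two days before readout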); details: JHH-DIPG-1 viability, CellTiter-Glo ATP luminescence
[3] = growth inhibition of DIPG glioma cells, dose response, cell-based, SU-DIPG-IV, MIPE4.0, CellTiter-Glo, qHTS (AID 1347063; cut-off not given, nearly all actives have AC50 up to about 30 µM;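 note: compound exposure lasted 48 hours before the viability readout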); details: SU-DIPG-IV viability, CellTiter-Glo ATP luminescence
[4] = growth inhibition of DIPG glioma cells, dose response, cell-based, SU-DIPG-XIII, MIPE5.0, CellTiter-Glo, qHTS (AID 1347064; cut-off not given, nearly all actives have AC50 up to about 23 µM;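 for AC50: cells exposed to compound for 48 hours before the viability read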); details: SU-DIPG-XIII viability, CellTiter-Glo ATP luminescence
[5] = viability loss in pontine glioma line – cell-based, SU-DIPG-XXV, MIPE5.0, CellTiter-Glo, qHTS, dose response (AID 1347065); details: CellTiter-Glo ATP luminescence;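 note: cells exposed to compound for 48 hours before ATP readout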
[6] = SU-DIPG-VI glioma cell viability, MIPE4.0 library, CellTiter-Glo luminescence, qHTS (AID 1347066; cut-off not given, nearly all actives have AC50 up to about 30 µM;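 note: cells exposed to compound for 48 hours before readout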); details: CellTiter-Glo ATP luminescence
[7] = JHH-DIPG-1 glioma cell viability, MIPE5.0 library, CellTiter-Glo luminescence, qHTS (AID 1347067); details: JHH-DIPG-1 glioma viability, CellTiter-Glo ATP luminescence;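 note: cells exposed to compound for 48 hours before readout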
[8] = SU-DIPG-XXV glioma cell viability, MIPE5.0 library, qHTS (AID 1347068; cut-off not given, nearly all actives have IC50 up to about 30 µM;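 for IC50: cells exposed to compound for 48 hours before viability readout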)
[9] = mitochondrial permeability transition inhibitors (AID 1580; call rule not given here); details: isolated mitochondria, permeability transition inhibition; active call at 10 uM (0/1): at 10 µM, stronger effect = higher value
[10] = inhibitors of polyQ aggregate elongation, biochemical, solid-phase synthetic aggregates, QA3 (AID 1585; call rule not given here); details: biotin-polyQ incorporation, at 100 µM, stronger effect = higher value
[11] = polyglutamine aggregation reduction, turbidity readout, qthio, single concentration 25 µM screen (AID 1588; call rule not given here); details: at 25 µM, stronger effect = lower value
[12] = enhancers of SMN2 over SMN1 splicing, cell-based, SMN2/SMN1 luciferase reporters (AID 1598; call rule not given here); details: SMN2 vs SMN1 luciferase splicing reporter cells; at 10 µM; stronger effect = higher value
[13] = growth inhibition of DIPG glioma cells, dose response, cell-based, SU-DIPG-XIII, MIPE4.0, CellTiter-Glo, qHTS (AID 1347061; cut-off not given, nearly all actives have AC50 up to about 37 µM;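 note: cells exposed to compound for 48 hours before readout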); details: SU-DIPG-XIII viability, CellTiter-Glo ATP luminescence

SMILES: CSCC[C@@H](NC(=O)[C@@H](Cc1ccccc1)NC(=O)CNC(=O)CNC(=O)[C@@H](N)Cc1ccc(O)cc1)C(=O)O
- outcome [1]: inactive
- outcome [2]: inactive
- outcome [3]: inactive
- outcome [4]: inactive
- outcome [5]: inactive
- AC50 [6]: inconclusive: 0.00372 µM
- outcome [7]: inactive
- outcome [8]: inactive

SMILES: COc1cc(C(=O)N2CC[C@@H](O)[C@@H](N)C2)cc2nc(-c3cc4ccccc4n3CC3CC3)n(C)c12
- AC50 [1]: active: 23.5 µM
- AC50 [4]: active: 23.5 µM
- IC50 [8]: inconclusive: 23.5 µM [cytotoxic]

SMILES: C=C(C)[C@H]1Cc2c(ccc3c2O[C@@H]2COc4cc(OC)c(OC)cc4[C@@H]2C3=O)O1
- active call at 10 uM (0/1) [9]: inconclusive: 1
- inhibition [10]: inconclusive: 15.3%
- aggregation (% of control) [11]: inconclusive: 106%
- SMN2/SMN1 luciferase ratio [12]: inconclusive: 1.07
- AC50 [1]: active: 1.32 µM
- AC50 [2]: inconclusive: 1.32 µM [cytotoxic]
- AC50 [3]: inconclusive: 1.48 µM [cytotoxic]
- AC50 [4]: active: 8.33 µM
- AC50 [6]: inconclusive: 5.26 µM [cytotoxic]
- IC50 [8]: inconclusive: 0.833 µM [cytotoxic]

SMILES: CN1CCN(c2ccc([N+](=O)[O-])c3no[n+]([O-])c23)CC1
- AC50 [1]: inconclusive: 20.9 µM [cytotoxic]
- AC50 [13]: inconclusive: 37.2 µM [cytotoxic]
- AC50 [3]: active: 16.6 µM
- AC50 [4]: active: 16.6 µM
- AC50 [6]: inconclusive: 0.00105 µM
- outcome [8]: inactive

SMILES: Cc1sc2c(c1C)C(c1ccc(Cl)cc1)=NC(CC(=O)Nc1ccc(O)cc1)c1nnc(C)n1-2 (stereo not drawn)
- AC50 [1]: inconclusive: 2.09 µM [cytotoxic]
- AC50 [4]: inconclusive: 0.105 µM [cytotoxic]
- AC50 [5]: inconclusive: 0.417 µM [cytotoxic]
- AC50 [7]: inconclusive: 0.00662 µM [cytotoxic]

SMILES: Cc1ccccc1-n1c(Cn2ncc3c(N)ncnc32)nc2cccc(C)c2c1=O
- outcome [1]: inactive
- AC50 [2]: inconclusive: 0.00662 µM [cytotoxic]
- AC50 [3]: inconclusive: 0.00743 µM [cytotoxic]
- AC50 [6]: inconclusive: 26.4 µM

SMILES: C[C@]12CCC(=O)C(O)=C1CC[C@@H]1[C@@H]2CC[C@]2(C)C(=O)CC[C@@H]12
- outcome [1]: inactive
- outcome [13]: inactive
- outcome [3]: inactive
- outcome [4]: inactive
- AC50 [6]: inconclusive: 29.6 µM [cytotoxic]
- outcome [8]: inactive

SMILES: CC(=O)c1c(O)c(C)c(O)c(Cc2c(O)c3c(c(C(=O)/C=C/c4ccccc4)c2O)OC(C)(C)C=C3)c1O
- AC50 [1]: inconclusive: 33.2 µM [cytotoxic]
- AC50 [4]: inconclusive: 13.2 µM [cytotoxic]
- AC50 [5]: active: 20.9 µM
- AC50 [7]: active: 23.5 µM

SMILES: Cc1[nH]ncc1-c1cc2nc([C@@H]3CC4CCN3CC4)[nH]c(=O)c2s1
- AC50 [1]: active: 18.6 µM
- AC50 [4]: inconclusive: 5.25 µM [cytotoxic]
- AC50 [5]: active: 16.6 µM
- IC50 [8]: active: 23.5 µM

SMILES: O=c1[nH]c2ccccc2n1CCCN1CCC(n2c(=O)[nH]c3cc(Cl)ccc32)CC1
- outcome [1]: inactive
- outcome [13]: inactive
- AC50 [3]: inconclusive: 0.0166 µM
- AC50 [5]: inconclusive: 0.00118 µM [cytotoxic]
- AC50 [7]: inconclusive: 37.2 µM [cytotoxic]
- outcome [8]: inactive

SMILES: C[C@@H](C1CC[C@@]2(O)C3=CC(=O)[C@@H]4C[C@@H](O)[C@@H](O)C[C@]4(C)[C@H]3CC[C@]12C)[C@H](O)CCC(C)(C)O (stereo partly drawn)
- AC50 [1]: inconclusive: 0.00166 µM
- outcome [5]: inactive
- IC50 [8]: inconclusive: 11.8 µM

SMILES: C=C[C@H]1CN2CCC1C[C@H]2[C@H](O)c1ccnc2ccccc12 (stereo partly drawn)
- AC50 [13]: inconclusive: 18.7 µM [cytotoxic]
- AC50 [2]: active: 20.9 µM
- AC50 [3]: inconclusive: 16.6 µM [cytotoxic]

SMILES: CNC(=O)N1N=C(c2ccc(N)cc2)c2cc3c(cc2CC1C)OCO3 (stereo not drawn)
- AC50 [13]: inconclusive: 0.187 µM
- outcome [2]: inactive
- AC50 [3]: inconclusive: 2.35 µM [cytotoxic]

SMILES: COC[C@@H](NC(C)=O)C(=O)NCc1ccccc1
- AC50 [13]: inconclusive: 16.6 µM [cytotoxic]
- AC50 [3]: inconclusive: 6.62 µM [cytotoxic]
- outcome [4]: inactive
- outcome [5]: inactive
- outcome [6]: inactive
- outcome [8]: inactive

SMILES: Cc1cc(SCc2sc(-c3ccc(C(F)(F)F)c(F)c3)nc2C)ccc1OCC(=O)O
- outcome [13]: inactive
- AC50 [2]: inconclusive: 29.6 µM [cytotoxic]
- outcome [3]: inactive
- outcome [5]: inactive
- AC50 [7]: inconclusive: 1.86 µM [cytotoxic]
- outcome [8]: inactive

SMILES: CC(C)(NC(=O)O[C@@H]1CN2CCC1CC2)c1csc(-c2ccc(F)cc2)n1
- AC50 [1]: inconclusive: 37.2 µM [cytotoxic]
- outcome [7]: inactive

SMILES: COc1ccc(N(C(=O)Oc2c(C)cccc2C)c2ccnc(Nc3ccc(N4CCN(C)CC4)cc3)n2)c(OC)c1
- AC50 [13]: inconclusive: 5.9 µM [cytotoxic]
- AC50 [2]: inconclusive: 1.48 µM [cytotoxic]
- AC50 [3]: inconclusive: 0.743 µM [cytotoxic]
- AC50 [4]: active: 14.8 µM
- AC50 [7]: active: 16.6 µM
